15 molecules from PMC11112163 can be followed below.

The chains behind the UniProt entries cited, without tags or fusion partners.
UniProt Q6PDQ2: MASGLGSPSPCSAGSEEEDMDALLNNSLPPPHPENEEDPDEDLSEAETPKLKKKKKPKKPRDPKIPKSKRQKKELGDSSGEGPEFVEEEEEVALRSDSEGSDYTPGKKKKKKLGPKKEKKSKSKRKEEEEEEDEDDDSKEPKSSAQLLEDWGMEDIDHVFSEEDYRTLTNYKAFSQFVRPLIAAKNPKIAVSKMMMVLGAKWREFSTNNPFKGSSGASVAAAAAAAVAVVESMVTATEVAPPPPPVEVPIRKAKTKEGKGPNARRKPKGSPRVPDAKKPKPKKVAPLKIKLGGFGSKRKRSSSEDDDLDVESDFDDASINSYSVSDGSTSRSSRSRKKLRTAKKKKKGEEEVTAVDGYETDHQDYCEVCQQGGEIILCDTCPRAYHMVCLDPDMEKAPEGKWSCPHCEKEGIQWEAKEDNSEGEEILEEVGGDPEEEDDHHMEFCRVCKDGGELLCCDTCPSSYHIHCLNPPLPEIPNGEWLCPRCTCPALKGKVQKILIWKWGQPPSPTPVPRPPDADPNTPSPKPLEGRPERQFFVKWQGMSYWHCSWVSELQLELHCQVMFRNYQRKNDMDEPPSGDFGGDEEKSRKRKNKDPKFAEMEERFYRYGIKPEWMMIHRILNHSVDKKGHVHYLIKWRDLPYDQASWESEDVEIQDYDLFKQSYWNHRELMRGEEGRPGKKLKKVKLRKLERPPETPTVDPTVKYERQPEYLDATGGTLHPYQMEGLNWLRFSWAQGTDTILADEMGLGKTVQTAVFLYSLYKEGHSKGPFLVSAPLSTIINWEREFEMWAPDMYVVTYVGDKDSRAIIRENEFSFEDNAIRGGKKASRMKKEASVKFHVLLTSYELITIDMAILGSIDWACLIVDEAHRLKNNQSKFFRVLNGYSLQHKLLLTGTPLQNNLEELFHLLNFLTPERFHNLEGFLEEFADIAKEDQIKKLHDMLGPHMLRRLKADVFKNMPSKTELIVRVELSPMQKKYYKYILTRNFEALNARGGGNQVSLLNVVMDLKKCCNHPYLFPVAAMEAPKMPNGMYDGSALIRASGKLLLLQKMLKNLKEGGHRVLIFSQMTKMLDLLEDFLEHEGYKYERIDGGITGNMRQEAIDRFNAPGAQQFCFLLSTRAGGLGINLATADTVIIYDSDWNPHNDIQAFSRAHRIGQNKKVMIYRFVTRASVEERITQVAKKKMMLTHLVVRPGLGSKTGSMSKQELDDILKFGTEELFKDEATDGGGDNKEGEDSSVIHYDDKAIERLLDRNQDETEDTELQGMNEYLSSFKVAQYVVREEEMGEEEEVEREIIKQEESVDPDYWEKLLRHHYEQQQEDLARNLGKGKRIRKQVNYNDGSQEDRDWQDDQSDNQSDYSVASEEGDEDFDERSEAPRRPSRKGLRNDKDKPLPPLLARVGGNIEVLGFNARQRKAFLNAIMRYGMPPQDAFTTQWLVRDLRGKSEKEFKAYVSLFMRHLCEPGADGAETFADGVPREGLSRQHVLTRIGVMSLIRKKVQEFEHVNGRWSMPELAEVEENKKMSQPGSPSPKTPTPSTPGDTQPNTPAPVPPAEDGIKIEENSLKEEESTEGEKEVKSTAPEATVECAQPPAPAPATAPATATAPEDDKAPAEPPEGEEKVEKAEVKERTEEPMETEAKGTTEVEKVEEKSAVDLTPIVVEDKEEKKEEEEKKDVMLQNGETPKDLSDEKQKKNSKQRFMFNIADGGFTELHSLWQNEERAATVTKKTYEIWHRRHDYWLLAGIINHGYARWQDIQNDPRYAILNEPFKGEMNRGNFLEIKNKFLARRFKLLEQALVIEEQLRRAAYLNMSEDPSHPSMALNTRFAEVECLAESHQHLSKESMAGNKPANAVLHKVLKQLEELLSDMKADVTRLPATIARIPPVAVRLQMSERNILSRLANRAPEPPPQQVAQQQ
UniProt Q9R190: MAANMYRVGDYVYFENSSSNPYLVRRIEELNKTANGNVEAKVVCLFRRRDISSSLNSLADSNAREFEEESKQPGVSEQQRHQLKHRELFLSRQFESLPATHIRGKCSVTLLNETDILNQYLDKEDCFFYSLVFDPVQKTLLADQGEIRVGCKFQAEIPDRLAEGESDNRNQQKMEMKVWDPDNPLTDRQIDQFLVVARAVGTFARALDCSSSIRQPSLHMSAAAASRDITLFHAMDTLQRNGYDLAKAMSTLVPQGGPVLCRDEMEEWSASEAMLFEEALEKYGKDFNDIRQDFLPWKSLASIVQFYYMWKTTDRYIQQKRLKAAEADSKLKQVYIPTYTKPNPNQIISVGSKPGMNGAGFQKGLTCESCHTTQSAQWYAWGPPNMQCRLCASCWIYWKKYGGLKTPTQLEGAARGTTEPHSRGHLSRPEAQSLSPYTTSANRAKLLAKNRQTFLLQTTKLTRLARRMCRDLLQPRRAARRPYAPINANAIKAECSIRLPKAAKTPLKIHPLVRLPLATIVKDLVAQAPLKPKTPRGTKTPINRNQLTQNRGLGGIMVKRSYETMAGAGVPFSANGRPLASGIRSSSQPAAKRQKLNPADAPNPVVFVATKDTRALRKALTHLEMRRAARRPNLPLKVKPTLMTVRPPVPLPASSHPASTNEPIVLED
UniProt Q8CHY6: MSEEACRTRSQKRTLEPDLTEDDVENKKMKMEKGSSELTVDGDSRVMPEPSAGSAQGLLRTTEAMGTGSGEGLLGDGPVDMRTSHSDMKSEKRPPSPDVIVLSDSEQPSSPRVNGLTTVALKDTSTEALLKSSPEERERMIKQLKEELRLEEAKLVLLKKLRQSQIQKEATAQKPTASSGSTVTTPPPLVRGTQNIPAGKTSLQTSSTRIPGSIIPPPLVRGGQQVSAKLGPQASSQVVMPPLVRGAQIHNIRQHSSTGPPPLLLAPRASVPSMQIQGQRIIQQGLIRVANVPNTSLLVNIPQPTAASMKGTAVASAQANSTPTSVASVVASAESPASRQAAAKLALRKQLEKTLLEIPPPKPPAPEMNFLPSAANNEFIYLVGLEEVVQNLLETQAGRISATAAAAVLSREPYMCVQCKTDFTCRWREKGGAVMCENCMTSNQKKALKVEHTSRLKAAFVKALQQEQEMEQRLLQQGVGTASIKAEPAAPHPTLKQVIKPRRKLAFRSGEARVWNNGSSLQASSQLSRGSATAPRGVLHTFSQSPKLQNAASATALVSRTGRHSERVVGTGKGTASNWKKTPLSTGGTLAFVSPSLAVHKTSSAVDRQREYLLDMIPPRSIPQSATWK
UniProt P70288: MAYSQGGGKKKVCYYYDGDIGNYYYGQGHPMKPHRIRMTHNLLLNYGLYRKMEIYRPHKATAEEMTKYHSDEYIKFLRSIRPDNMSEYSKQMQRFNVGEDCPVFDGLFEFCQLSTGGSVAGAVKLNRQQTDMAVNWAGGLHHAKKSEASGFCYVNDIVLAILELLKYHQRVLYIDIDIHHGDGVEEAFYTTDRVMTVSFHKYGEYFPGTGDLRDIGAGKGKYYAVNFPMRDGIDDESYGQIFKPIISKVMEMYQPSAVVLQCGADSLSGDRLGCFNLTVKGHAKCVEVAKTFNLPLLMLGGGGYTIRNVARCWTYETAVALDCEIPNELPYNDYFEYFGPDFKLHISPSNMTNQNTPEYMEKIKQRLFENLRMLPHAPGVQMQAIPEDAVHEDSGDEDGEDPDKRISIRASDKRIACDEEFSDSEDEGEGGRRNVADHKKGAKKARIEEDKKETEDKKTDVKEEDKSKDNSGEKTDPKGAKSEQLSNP
UniProt Q8VHR5: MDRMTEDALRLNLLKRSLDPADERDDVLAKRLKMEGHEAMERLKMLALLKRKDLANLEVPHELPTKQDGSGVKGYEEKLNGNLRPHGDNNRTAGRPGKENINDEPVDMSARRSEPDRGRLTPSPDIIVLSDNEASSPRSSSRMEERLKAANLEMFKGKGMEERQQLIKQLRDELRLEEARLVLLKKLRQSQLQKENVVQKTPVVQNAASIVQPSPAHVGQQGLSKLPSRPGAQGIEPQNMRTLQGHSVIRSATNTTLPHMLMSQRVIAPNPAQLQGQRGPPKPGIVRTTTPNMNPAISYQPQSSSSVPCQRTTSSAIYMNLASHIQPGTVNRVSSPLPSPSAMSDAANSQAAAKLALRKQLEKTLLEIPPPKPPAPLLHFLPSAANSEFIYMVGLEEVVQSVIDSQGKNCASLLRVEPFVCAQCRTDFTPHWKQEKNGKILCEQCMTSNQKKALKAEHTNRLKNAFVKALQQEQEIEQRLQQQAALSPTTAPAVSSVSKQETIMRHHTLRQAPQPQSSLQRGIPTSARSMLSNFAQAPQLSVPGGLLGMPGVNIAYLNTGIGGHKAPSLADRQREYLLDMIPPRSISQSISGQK
UniProt Q60737: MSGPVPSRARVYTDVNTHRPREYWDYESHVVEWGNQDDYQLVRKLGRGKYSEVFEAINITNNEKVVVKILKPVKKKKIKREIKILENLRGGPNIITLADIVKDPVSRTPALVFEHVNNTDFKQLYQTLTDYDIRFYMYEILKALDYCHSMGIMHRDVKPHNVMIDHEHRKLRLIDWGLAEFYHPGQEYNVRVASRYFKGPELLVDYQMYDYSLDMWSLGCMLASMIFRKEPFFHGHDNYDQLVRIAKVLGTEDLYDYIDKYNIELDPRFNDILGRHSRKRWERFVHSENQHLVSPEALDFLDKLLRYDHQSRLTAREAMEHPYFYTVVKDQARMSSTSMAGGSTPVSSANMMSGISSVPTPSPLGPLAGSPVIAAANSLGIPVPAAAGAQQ
UniProt Q9EP97: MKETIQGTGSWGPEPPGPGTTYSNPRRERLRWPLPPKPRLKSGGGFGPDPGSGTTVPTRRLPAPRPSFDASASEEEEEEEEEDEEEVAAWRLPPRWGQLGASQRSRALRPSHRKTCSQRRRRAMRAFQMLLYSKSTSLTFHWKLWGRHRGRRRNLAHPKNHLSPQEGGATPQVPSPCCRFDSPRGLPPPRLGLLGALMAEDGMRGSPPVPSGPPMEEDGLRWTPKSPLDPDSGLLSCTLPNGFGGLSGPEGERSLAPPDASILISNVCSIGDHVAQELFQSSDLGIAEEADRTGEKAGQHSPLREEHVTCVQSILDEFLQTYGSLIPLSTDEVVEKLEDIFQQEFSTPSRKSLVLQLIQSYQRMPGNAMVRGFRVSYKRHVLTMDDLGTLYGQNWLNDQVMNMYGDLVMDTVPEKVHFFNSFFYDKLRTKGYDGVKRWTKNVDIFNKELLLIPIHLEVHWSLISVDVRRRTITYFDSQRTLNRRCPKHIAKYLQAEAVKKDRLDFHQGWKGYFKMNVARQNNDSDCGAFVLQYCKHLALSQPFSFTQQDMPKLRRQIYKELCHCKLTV
UniProt O09106: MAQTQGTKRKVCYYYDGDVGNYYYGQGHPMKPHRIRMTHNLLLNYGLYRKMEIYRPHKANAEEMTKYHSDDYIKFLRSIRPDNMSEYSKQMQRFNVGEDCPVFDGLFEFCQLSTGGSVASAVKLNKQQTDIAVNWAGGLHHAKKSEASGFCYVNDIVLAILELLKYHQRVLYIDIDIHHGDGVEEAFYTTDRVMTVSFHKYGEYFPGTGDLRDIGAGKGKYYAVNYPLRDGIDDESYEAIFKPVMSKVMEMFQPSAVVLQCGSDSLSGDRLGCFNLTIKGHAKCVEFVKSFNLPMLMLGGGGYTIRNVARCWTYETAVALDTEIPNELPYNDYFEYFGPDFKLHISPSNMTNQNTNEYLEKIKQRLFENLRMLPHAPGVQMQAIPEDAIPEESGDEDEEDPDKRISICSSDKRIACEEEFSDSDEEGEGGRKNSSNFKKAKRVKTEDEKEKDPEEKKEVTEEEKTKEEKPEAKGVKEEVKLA
UniProt Q924K8: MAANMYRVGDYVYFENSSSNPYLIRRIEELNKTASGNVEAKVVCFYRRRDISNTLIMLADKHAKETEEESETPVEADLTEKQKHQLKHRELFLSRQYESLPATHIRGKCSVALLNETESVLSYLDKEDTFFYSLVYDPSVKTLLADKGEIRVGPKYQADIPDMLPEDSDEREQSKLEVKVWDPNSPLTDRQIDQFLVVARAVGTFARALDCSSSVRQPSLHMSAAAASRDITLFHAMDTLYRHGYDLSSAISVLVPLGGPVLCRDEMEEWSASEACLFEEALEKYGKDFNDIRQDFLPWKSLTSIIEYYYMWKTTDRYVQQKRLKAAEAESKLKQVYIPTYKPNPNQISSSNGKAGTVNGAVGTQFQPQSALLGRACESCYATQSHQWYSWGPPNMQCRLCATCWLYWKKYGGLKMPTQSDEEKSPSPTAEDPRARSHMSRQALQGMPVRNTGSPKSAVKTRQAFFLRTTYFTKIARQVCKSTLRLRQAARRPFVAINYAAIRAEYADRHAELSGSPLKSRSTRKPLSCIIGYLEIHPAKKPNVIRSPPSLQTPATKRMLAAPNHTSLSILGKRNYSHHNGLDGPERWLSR

Test [1] deals with CHD4 (endogenous, mouse heart) (mouse (endogenous in embryonic and adult hearts)) (UniProt Q6PDQ2). Briefly: affinity purification with mass spectrometry; IP of endogenous CHD4 (rabbit anti-CHD4 on magnetic beads) from cardiac nuclei of E10.5 mouse embryonic hearts; IgG control; nLC-MS/MS.
The target of test [2] is T1, SMYD1 (endogenous, mouse heart) (mouse (endogenous in embryonic and adult hearts)) (UniProt P97443).
T1 sequence: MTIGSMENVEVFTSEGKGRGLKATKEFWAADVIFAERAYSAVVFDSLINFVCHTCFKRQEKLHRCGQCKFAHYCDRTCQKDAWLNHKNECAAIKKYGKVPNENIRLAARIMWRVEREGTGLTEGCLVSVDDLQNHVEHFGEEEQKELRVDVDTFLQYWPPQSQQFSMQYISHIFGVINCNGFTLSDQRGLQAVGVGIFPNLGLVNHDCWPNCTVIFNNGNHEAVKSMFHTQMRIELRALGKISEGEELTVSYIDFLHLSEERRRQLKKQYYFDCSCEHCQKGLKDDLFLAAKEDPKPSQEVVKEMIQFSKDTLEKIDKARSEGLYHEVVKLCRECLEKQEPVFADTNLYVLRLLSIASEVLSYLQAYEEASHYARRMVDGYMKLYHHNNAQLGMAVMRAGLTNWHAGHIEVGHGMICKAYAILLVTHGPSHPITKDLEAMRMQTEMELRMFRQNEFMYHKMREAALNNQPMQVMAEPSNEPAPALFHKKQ
In words: affinity purification with mass spectrometry; IP of endogenous SMYD1 (rabbit anti-SMYD1 on magnetic beads) from cardiac nuclei of E9.5 mouse embryonic hearts; MS/MS.

In test [3] the target is CHD4 (endogenous, mouse heart) (mouse (endogenous in embryonic and adult hearts)) (UniProt Q6PDQ2). In words: affinity purification with mass spectrometry; IP of endogenous CHD4 (rabbit anti-CHD4 on magnetic beads) from cardiac nuclei of E10.5 mouse embryonic hearts; IgG control; nLC-MS/MS. This is another data set of the same source.

Read-outs that look alike come from different tables or passages of the source. No constants are given. Whether binding was seen depends on the method and setting. Binding seen in cells or lysates may run through a third protein. Here binding means that the protein was enriched with, or labelled near, the bait; the list need not be complete.

For the molecule PELP1 (from UniProt Q9DBD5 1-1123), the binding result in test [1] and in test [2] was “binds” each time.
Take MTA2 (from UniProt Q9R190 1-668): the binding result in test [1] and in test [2] was “binds” each time.
Consider GATAD2A (from UniProt Q8CHY6 1-629), for which the binding entry in test [2] is listed as “binds”.
HDAC2 (from UniProt P70288 1-488): in test [2], the binding result was “binds”.
As to MCM7 (from UniProt Q61881 1-719), the binding result in test [1] and in test [2] was “binds” throughout.
Regarding SMARCA4 (from UniProt Q3TKT4 1-1613), the binding result in test [2] is on record as “binds”.
On to GATAD2B (from UniProt Q8VHR5 1-594), for which, in test [2], the binding entry is given as “binds”.
Consider CSNK2A1 (from UniProt Q60737 1-391), for which the binding result in test [1] and in test [2] was “binds” each time.
MTA1 (from UniProt Q8K4B0 1-715): the binding result in test [1] and in test [2] was “binds” throughout.
As to SENP3 (from UniProt Q9EP97 1-568), the binding entry in test [1] and in test [2] was “binds” in each case.
For the molecule HDAC1 (from UniProt O09106 1-482), the binding result in test [2] is “binds”.
On to MTA3 (from UniProt Q924K8 1-591), for which the binding entry in test [1] and in test [2] was “binds” in each case.
For RBBP5 (from UniProt Q8BX09 1-538), the binding result in test [1] and in test [2] was “binds” each time.

B1: MCM4 (protein, UniProt P49717 1-862)
chain: MSSPASTPSRRSSRRGRVTPTQSLRSEESRSSPNRRRRGEDSSTGELLPMPTSPGADLQSPPAQNALFSSPPQMHSLAIPLDFDVSSPLTYGTPSSRVEGTPRSGVRGTPVRQRPDLGSARKGLQVDLQSDGAAAEDIVPSEQSLGQKLVIWGTDVNVATCKENFQRFLQCFTDPLAKEEENVGIDITQPLYMQQLGEINITGEPFLNVNCEHIKSFSKNLYRQLISYPQEVIPTFDMAVNEIFFDRYPDSILEHQIQVRPFNALKTKSMRNLNPEDIDQLITISGMVIRTSQLIPEMQEAFFQCQVCAHTTRVEIDRGRIAEPCSCVHCHTTHSMALIHNRSFFSDKQMIKLQESPEDMPAGQTPHTIVLFAHNDLVDKVQPGDRVNVTGIYRAVPIRVNPRVSNVKSVYKTHIDVIHYRKTDAKRLHGLDEEAEQKLFSEKRVKLLKELSRKPDIYERLASALAPSIYEHEDIKKGILLQLFGGTRKDFSHTGRGKFRAEINILLCGDPGTSKSQLLQYVYNLVPRGQYTSGKGSSAVGLTAYVMKDPETRQLVLQTGALVLSDNGICCIDEFDKMNESTRSVLHEVMEQQTLSIAKAGIICQLNARTSVLAAANPIESQWNPKKTTIENIQLPHTLLSRFDLIFLMLDPQDEAYDRRLAHHLVSLYYQSEEQVEEEFLDMAVLKDYIAYAHSTIMPRLSEEASQALIEAYVNMRKIGSSRGMVSAYPRQLESLIRLAEAHAKVRFSNKVEAIDVEEAKRLHREALKQSATDPRTGIVDISILTTGMSATSRKRKEELAEALRKLILSKGKTPALKYQQLFEDIRGQSDTAITKDMFEEALRALADDDFLTVTGKTVRLL
As for B1, the binding result in test [3] and in test [2] was “binds” in each case.

B2: MCM6 (protein, UniProt P97311 1-821)
chain: MDLAAAAEPGAGSQHPEVRDEVAEKCQKLFLDFLEEFQGSDGEIKYLQFAEELIRPERNTLVVSFADLEQFNQQLSTTIQEEFYRVYPYLCRALKTFVKDRKEIPFAKDFYVAFQDLPTRHKIRELTSSRIGLLTRISGQVVRTHPVHPELVSGTFLCLDCQTVIKDVEQQFKYTQPNICRNPVCANRKRFLLDTNKSRFVDFQKVRIQETQAELPRGSIPRSLEVILRAEAVESAQAGDRCDFTGALIVVPDVSKLSTPGARAETNSRVSGADGYETEGIRGLRALGVRDLSYRLVFLACHVAPTNPRFGGKELRDEEQTAESIKNQMTVKEWEKVFEMSQDKNLYHNLCTSLFPTIHGNDEVKRGVLLMLFGGVPKTTGEGTSLRGDINVCIVGDPSTAKSQFLKHVDEFSPRAVYTSGKASSAAGLTAAVVRDEESHEFVIEAGALMLADNGVCCIDEFDKMDMRDQVAIHEAMEQQTISITKAGVKATLNARTSILAAANPVSGHYDRSKSLKQNINLSAPIMSRFDLFFILVDECNEVTDYAIARRIVDLHSRIEESIDRVYSLDDIRRYLLFARQFKPKISKESEDFIVEQYKRLRQRDGSGVTKSSWRITVRQLESMIRLSESMARMHCCDEVQPKHVKEAFRLLNKSIIRVETPDVNLDQEEEIQMETDEGQGGVNGHADSPAPVNRFNGSSEDASQETVSKPSLRLGFAEYCRISNLIVLHLRKMEEEEDESALKRSELVNWYLKEIESEIDSEEELINKKTIIEKVVHRLTHYDHVLIELTQAGLKGSSEGSESYEEDPYLVVNPNYLLED
For B2, the binding result in test [3] and in test [2] was “binds” each time.
